Measurements: US20130096282A1
These are yes or no findings as the source states them, for the method shown. Some results given as binding are weak or reduced against the parent protein; the word gives no strength. Where a sequence is shown, tags or fusion partners need not be part of it.

Target: T1, recombinantly-expressed P. aeruginosa flagellin type B (Pseudomonas aeruginosa) (UniProt P72151)
T1 sequence: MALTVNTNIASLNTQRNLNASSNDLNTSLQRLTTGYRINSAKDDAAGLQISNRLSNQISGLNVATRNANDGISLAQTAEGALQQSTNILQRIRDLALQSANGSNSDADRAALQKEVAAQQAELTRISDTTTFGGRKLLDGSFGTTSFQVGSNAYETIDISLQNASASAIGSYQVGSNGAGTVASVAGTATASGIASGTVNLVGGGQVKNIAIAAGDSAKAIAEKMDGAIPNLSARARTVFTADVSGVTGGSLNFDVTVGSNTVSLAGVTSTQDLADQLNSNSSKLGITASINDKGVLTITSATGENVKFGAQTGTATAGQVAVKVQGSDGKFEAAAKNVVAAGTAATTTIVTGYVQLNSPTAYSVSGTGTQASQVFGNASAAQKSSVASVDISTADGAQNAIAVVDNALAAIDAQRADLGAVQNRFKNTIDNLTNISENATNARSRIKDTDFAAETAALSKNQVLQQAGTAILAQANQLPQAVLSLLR
Assay: ELISA on plates coated with recombinant flagellin type B

B1: fully human recombinant mAb LST-008 (antibody, V domains shown)
VH: QVRLVQSGTEVKKPGASVRVSCKASGYTFSNYYMYWVRQAPGQGLEWMAMINPSGGSTRYAQKFQGRVTMTRDTSTSTVYMELSSLRSEDTAVYYCARADSGSYFGYWGQGTLVTVSS
VL: DIQLTQSPSFLSASVGDRVPITCRASQGISTHLAWYQQKPGKAPKLLIYAASTLQSGVPSRFSGSGSGTEFTLTISSLQPEDSATYYCQQLKSYPLTFGGGTKVEIKR
binding: binds
